{"source": "paper PMC5996148", "test_in_all_cases": "protein microarray (ProtoArray v5.0), streptavidin-Alexa Fluor 647", "details_in_all_cases": "3'-biotin; 20 mM Tris (pH 7.5), 5 mM MgCl2, 100 mM KCl, 0.1% Tween-20, A/T-rich and random oligonucleotide blockers; temperature not stated; high values mean tight binding", "key": {"FGF13": {"target": "T1, FGF13 (UniProt Q92913)", "T1 sequence": "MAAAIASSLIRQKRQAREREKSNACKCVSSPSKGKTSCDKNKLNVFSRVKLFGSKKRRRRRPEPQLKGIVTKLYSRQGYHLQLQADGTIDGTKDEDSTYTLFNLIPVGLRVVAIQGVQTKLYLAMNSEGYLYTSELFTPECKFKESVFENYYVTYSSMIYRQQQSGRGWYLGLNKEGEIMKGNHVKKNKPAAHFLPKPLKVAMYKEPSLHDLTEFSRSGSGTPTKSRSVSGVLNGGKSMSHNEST"}, "FGF21 (human)": {"test_system": "FGF21 (human)"}, "FKBPL": {"target": "T2, FKBPL (UniProt Q9UIM3)", "T2 sequence": "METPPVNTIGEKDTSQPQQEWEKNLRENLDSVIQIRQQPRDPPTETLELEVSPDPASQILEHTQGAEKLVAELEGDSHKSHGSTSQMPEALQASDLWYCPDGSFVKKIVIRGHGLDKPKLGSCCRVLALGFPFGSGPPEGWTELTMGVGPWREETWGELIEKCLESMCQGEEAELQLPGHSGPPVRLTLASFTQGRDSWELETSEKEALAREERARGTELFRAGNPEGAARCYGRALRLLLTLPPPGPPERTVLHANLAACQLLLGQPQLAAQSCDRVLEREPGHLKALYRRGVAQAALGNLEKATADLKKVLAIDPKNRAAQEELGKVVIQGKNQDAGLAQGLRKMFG"}, "FLJ10781 (human)": {"test_system": "FLJ10781 (human)"}, "FLJ20160 (human)": {"test_system": "FLJ20160 (human)"}, "FLJ20489 (human)": {"test_system": "FLJ20489 (human)"}, "FLJ22222 (human)": {"test_system": "FLJ22222 (human)"}, "FLJ25758 (human)": {"test_system": "FLJ25758 (human)"}, "FLJ31438 (human)": {"test_system": "FLJ31438 (human)"}, "FLJ40504 (human)": {"test_system": "FLJ40504 (human)"}, "FLJ43980 (human)": {"test_system": "FLJ43980 (human)"}, "FLOT2 (human)": {"test_system": "FLOT2 (human)"}, "FLT3LG (human)": {"test_system": "FLT3LG (human)"}, "FN3KRP (human)": {"test_system": "FN3KRP (human)"}, "FNBP1 (human)": {"test_system": "FNBP1 (human)"}, "FOXP1 (human)": {"test_system": "FOXP1 (human)"}, "FREQ (human)": {"test_system": "FREQ (human)"}, "FRMD8 (human)": {"test_system": "FRMD8 (human)"}, "FTL (human)": {"test_system": "FTL (human)"}, "FUNDC2 (human)": {"test_system": "FUNDC2 (human)"}}, "note": "Some of the results follow. For some assays here: Construct or isoform of the protein are uncertain."}
{"sequence": "GGGGACAGGGGTATGGGGAGGGG [G4-3 biotinylated (CtG)]", "values": [{"measurement": "binding signal", "setting": "FGF13", "result": 3.55, "unit": "z-score"}, {"measurement": "binding signal", "setting": "FGF21 (human)", "result": -0.3, "unit": "z-score"}, {"measurement": "binding signal", "setting": "FKBPL", "result": -0.334, "unit": "z-score"}, {"measurement": "binding signal", "setting": "FLJ10781 (human)", "result": 3.01, "unit": "z-score"}, {"measurement": "binding signal", "setting": "FLJ20160 (human)", "result": -0.315, "unit": "z-score"}, {"measurement": "binding signal", "setting": "FLJ20489 (human)", "result": -0.322, "unit": "z-score"}, {"measurement": "binding signal", "setting": "FLJ22222 (human)", "result": -0.303, "unit": "z-score"}, {"measurement": "binding signal", "setting": "FLJ25758 (human)", "result": -0.331, "unit": "z-score"}, {"measurement": "binding signal", "setting": "FLJ31438 (human)", "result": -0.307, "unit": "z-score"}, {"measurement": "binding signal", "setting": "FLJ40504 (human)", "result": -0.324, "unit": "z-score"}, {"measurement": "binding signal", "setting": "FLJ43980 (human)", "result": -0.336, "unit": "z-score"}, {"measurement": "binding signal", "setting": "FLOT2 (human)", "result": -0.324, "unit": "z-score"}, {"measurement": "binding signal", "setting": "FLT3LG (human)", "result": -0.312, "unit": "z-score"}, {"measurement": "binding signal", "setting": "FN3KRP (human)", "result": -0.315, "unit": "z-score"}, {"measurement": "binding signal", "setting": "FNBP1 (human)", "result": -0.326, "unit": "z-score"}, {"measurement": "binding signal", "setting": "FOXP1 (human)", "result": -0.33, "unit": "z-score"}, {"measurement": "binding signal", "setting": "FREQ (human)", "result": -0.333, "unit": "z-score"}, {"measurement": "binding signal", "setting": "FRMD8 (human)", "result": -0.324, "unit": "z-score"}, {"measurement": "binding signal", "setting": "FTL (human)", "result": -0.327, "unit": "z-score"}, {"measurement": "binding signal", "setting": "FUNDC2 (human)", "result": -0.332, "unit": "z-score"}]}
